Experimental data as given in paper PMC12431657, “Discovery and mechanistic insights of dibenzoylmethane as a broad spectrum inhibitor of coronavirus” (PLOS Pathogens, 2025).
Structures can show the parent of a compound that is named as a salt. Where two headings read alike, the source gives them in different places. Screen size: about 3,300 compounds; about 95 (3%) showed an effect of 50% or more. This is one part of the list. Peptide text beside a SMILES is read from it.

Test system: HCoV-229E
Parameters: species or system Huh-7; HTS, protection from HCoV-229E induced cell death, luminescent cell viability (CellCounting-Lite 2.0), inhibition rate
Conditions: 24 h post infection, 1 h compound pre-incubation, 10 µM, inhibitor

SMILES	229E Inhibition rate (229E Inhibition rate, 24 h) [%]	229E Inhibition rate [%]
CC[C@@H](C(=O)[C@@H](C)[C@@H](O)[C@H](C)CCc1ccc(C)c(O)c1C(=O)O)[C@H]1O[C@](CC)([C@H]2CC[C@](O)(CC)[C@H](C)O2)C[C@@H]1C [Lasalocid]	3.1	
C/C=C(/C)C(=O)O[C@H]1C(C)=C[C@]23C(=O)[C@@H](C=C4COC(C)(C)O[C@H]4[C@]12O)[C@H]1[C@@H](C[C@H]3C)C1(C)C [Ingenol-5,20-acetonide-3-O-angelate]		24.2
O=C1c2ccccc2C(=O)c2cc(O)ccc21 [2-Hydroxyanthraquinone]		23.5
NCCS(=O)O [Hypotaurine]		11.8
CCCCC1OC(=O)c2ccccc21 (stereo not drawn) [Butylphthalide]		0
C[C@@H]1CC[C@@]2(OC1)O[C@H]1C[C@H]3[C@@H]4CC[C@@H]5C[C@@H](O)CC[C@]5(C)[C@H]4CC[C@]3(C)[C@H]1[C@@H]2C [Smilagenin]		10.8
O=c1c(O[C@@H]2O[C@H](CO)[C@@H](O)[C@H](O)[C@H]2O[C@@H]2OC[C@@H](O)[C@H](O)[C@H]2O)c(-c2ccc(O)cc2)oc2cc(O)cc(O)c12 [Leucoside]		7.8
CCCCCCCCCCCCCC(=O)OCC(O)CO (stereo not drawn) [1-Monomyristin]		7.6
CC(C)=CCc1cc(-c2coc3cc(O)cc(O)c3c2=O)cc(O)c1O [Glycyrrhisoflavone]		62.7
COc1cc(/C=C/c2ccc(O)c(O)c2)cc(OC)c1 [3'-Hydroxypterostilbene]		11.5
O=C1CC(c2ccc(O)cc2)Oc2ccccc21 (stereo not drawn) [4'-Hydroxyflavanone]		32.3
CC[C@@H]1CN2CC[C@@]3(C(=O)Nc4ccccc43)[C@@H]2C[C@@H]1/C(=C\OC)C(=O)OC [Corynoxine]		21.5
CCCCCCCCCCCCC(=O)O [Tridecanoic acid]		12.5
NCc1ccc(O)cc1 [4-Hydroxybenzylamine]		0
OC[C@H]1NC[C@@H](O)[C@@H](O)[C@@H]1O [1-Deoxymannojirimycin (hydrochloride)]		29.2
C[C@H]1O[C@@H](O[C@H]2CC[C@@]3(C)[C@@H](CC[C@]4(C)[C@@H]3C=C[C@]35OC[C@@]6(CCC(C)(C)C[C@H]63)[C@H](O)C[C@]54C)[C@]2(C)CO)[C@H](O)[C@@H](O[C@@H]2O[C@H](CO)[C@@H](O)[C@H](O)[C@H]2O)[C@H]1O [Saikosaponin D]		17.7
COc1cc2cc(c1Cl)N(C)C(=O)C[C@H](O)[C@]1(C)O[C@H]1[C@H](C)[C@@H]1C[C@@](O)(NC(=O)O1)[C@H](OC)/C=C/C=C(\C)C2 [Maytansinol]		12.6
O=C(OCc1ccccc1)c1ccccc1 [Benzyl benzoate]		12.5
COC(=O)c1ccc(OC)c(O)c1 [Methyl isovanillate]		12.8
CC(C)(O)CC(=O)O [3-Hydroxyisovaleric acid]		20.6

SMILES	229E Inhibition rate (229E Inhibition rate, 24 h) [%]	229E Inhibition rate [%]
COc1nccnc1CC(C)C [2-Isobutyl-3-methoxypyrazine]		10.1
CC(C)[C@@H]1NC(=O)[C@@H]2CCCN2C(=O)[C@H](C(C)C)NC(=O)CNC(=O)[C@H](C)NC(=O)[C@H](Cc2c[nH]c3ccccc23)NC1=O [Segetalin A] (cyclo(AGVPVW))		4
OC[C@H]1O[C@H](OC[C@H]2O[C@H](O[C@H]3[C@H](O)[C@@H](O)[C@@H](O)O[C@@H]3CO)[C@H](O)[C@@H](O)[C@@H]2O[C@H]2O[C@H](CO)[C@@H](O)[C@H](O)[C@H]2O)[C@H](O)[C@@H](O)[C@@H]1O [Glycogen, Oysters]		5
COc1cc(/C=C/C(=O)O[C@@H]2C[C@@](O)(C(=O)O)C[C@@H](O)[C@@H]2O)ccc1O [3-Feruloylquinic acid]		12.8
C[C@@H]1CC[C@@]2(OC1)O[C@H]1C[C@H]3[C@@H]4CC=C5C[C@@H](O)C[C@@H](O)[C@]5(C)[C@H]4CC[C@]3(C)[C@H]1[C@@H]2C [Ruscogenin]		35.6
COc1ccc2c(=O)cc(-c3ccccc3)oc2c1 [7-Methoxyflavone]		36.2
O=C(CC(=O)c1ccccc1)c1ccccc1 [DBM, dibenzoylmethane]		28.7
CC(=O)OCCc1ccc(O)c(O)c1 [Hydroxytyrosol acetate]		11.3
CC(C)=CCc1c2ccoc2c(O)c2oc(=O)ccc12 [Alloimperatorin]		0
C[n+]1cccc(C(=O)[O-])c1 [Trigonelline (chloride)]	13.3	
C[C@@]1(C(=O)O)CC[C@]2(C)CC[C@]3(C)C4=CC(=O)c5c(cc(O)c(O)c5C=O)[C@]4(C)CC[C@@]3(C)[C@@H]2C1 [Demethylzeylasteral]		6.3
CCCCCCC(=O)CCCCCC/C=C/C[C@@H](O)[C@H](O)[C@@](N)(CO)C(=O)O [Myriocin]		6
CC(C)CCC(=O)O [4-Methylpentanoic acid]		5.6
CSCCC(N)C(=O)O (racemic) [DL-Methionine]		9.6
O=C(O)c1cc(O)c(O)c(O)c1 [Gallic acid]	39.2	
Oc1ccc2[nH]ccc2c1 [5-Hydroxyindole]		11.8
COc1c(O)cc2oc3cc4c(c(O)c3c(=O)c2c1CC=C(C)C)CCC(C)(C)O4 [3-Isomangostin]		11.6
Cc1ncc(CO)c(CO)c1O [Pyridoxine (hydrochloride)]	0	
C[C@H](CO[C@@H]1O[C@H](CO)[C@@H](O)[C@H](O)[C@H]1O)[C@H]1CC[C@@]2(CC[C@]3(C)[C@H](CC[C@@H]4[C@@]5(C)CC[C@H](O[C@@H]6O[C@H](CO)[C@@H](O)[C@H](O)[C@H]6O[C@@H]6OC[C@@H](O)[C@H](O)[C@H]6O)[C@@](C)(CO)[C@@H]5CC[C@]43C)[C@H]2O)CO1 [Hosenkoside F]		11.1

Of the compounds above, seven have an aryl methoxy group.
SMILES	229E Inhibition rate (229E Inhibition rate, 24 h) [%]	229E Inhibition rate [%]
COc1cc(/C=C/c2ccc(O)c(O)c2)cc(OC)c1 [3'-Hydroxypterostilbene]		11.5
COc1cc2cc(c1Cl)N(C)C(=O)C[C@H](O)[C@]1(C)O[C@H]1[C@H](C)[C@@H]1C[C@@](O)(NC(=O)O1)[C@H](OC)/C=C/C=C(\C)C2 [Maytansinol]		12.6
COC(=O)c1ccc(OC)c(O)c1 [Methyl isovanillate]		12.8
COc1nccnc1CC(C)C [2-Isobutyl-3-methoxypyrazine]		10.1
COc1cc(/C=C/C(=O)O[C@@H]2C[C@@](O)(C(=O)O)C[C@@H](O)[C@@H]2O)ccc1O [3-Feruloylquinic acid]		12.8
COc1ccc2c(=O)cc(-c3ccccc3)oc2c1 [7-Methoxyflavone]		36.2
COc1c(O)cc2oc3cc4c(c(O)c3c(=O)c2c1CC=C(C)C)CCC(C)(C)O4 [3-Isomangostin]		11.6
